In paper PMC7613265:
Results are given in words; binding and its absence hold for the method and conditions named. Some binding calls cover weakened binding; strength is not graded here.

Amino acid sequences for entries named in this document (tags omitted). Residues count along the entry.
UniProt P21513, residues 603-850: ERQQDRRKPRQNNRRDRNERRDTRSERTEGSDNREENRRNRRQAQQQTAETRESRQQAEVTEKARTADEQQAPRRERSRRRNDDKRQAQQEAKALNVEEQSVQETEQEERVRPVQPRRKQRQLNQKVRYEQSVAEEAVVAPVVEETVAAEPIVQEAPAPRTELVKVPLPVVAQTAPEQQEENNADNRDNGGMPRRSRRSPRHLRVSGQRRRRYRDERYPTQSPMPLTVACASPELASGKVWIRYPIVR
UniProt P0A6P9: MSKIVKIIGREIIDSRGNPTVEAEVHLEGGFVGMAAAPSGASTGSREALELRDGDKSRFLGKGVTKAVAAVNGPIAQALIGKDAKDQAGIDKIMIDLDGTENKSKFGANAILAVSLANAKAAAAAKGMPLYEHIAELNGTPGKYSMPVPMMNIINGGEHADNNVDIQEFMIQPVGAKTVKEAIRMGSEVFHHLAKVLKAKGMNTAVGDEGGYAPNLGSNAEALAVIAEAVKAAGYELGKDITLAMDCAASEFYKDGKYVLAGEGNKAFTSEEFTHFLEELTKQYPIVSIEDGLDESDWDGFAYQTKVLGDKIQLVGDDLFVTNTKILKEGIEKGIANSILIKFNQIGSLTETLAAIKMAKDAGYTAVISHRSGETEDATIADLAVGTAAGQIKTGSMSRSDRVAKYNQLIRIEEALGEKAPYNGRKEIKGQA

Molecular target: RNase E (603-850) (E. coli) (UniProt P21513)
Experiment: co-purification; recognition core expressed and purified by the protocols of Bruce et al. (2018); not described here

binding: binds
Substance: Enolase (from UniProt P0A6P9 1-432) (enzyme)
